About 4,000 (1%) of roughly 390,000 compounds were called active. The shares of active, inactive and inconclusive entries below differ from those in the screen. Calls come from the whole dose curve; as a rule, active = well fitted inhibition curve with a large enough effect; inconclusive = small, poorly fitted or top-dose-only effect, or another doubt; inactive = no such curve, though single readings can be large or run the other way. Potencies beside an inconclusive call are fits to weak or partial responses and may not hold up.
Each molecule was assayed against DNA polymerase iota (Homo sapiens) (UniProt Q9UNA4) (assay: qHTS for Inhibitors of Polymerase Iota). Details: Pol iota fluorescent replication assay, 10 min; series mostly up to 115 µM.
From the text: DNA polymerases, such as Pol iota, are specifically involved in DNA repair. Pol iota specifically plays an important role in translesion synthesis, where the normal high-fidelity DNA polymerases cannot proceed and DNA synthesis stalls. […] Thus, while pol eta's (and most likely iota's) normal function is to protect humans against the deleterious consequences of DNA damage, under certain conditions they can have deleterious effects on human health. As a consequence, we propose to utilize a high throughput replication assay to identify small molecule inhibitors of pol iota.
In a collaboration between the National Institute of Child Health & Human Development (NICHD) and NIH Chemical Genomics Center, a high-throughput, fluorescent screen was developed to screen the NIH Molecular Libraries Small Molecule Repository (MLSMR). This screen is used to identify inhibitors of pol iota.
NIH Chemical Genomics Center [NCGC]
NIH Molecular Libraries Probe Centers Network [MLPCN]
Assay Submitter (PI): Roger Woodgate, NICHD)
Three microliters of reagents (buffer in column 3 and 4 as negative control and 10 nM Pol iota in columns 1, 2, and 5-48) will be dispensed into 1,536-well black solid-bottomed plate. Compounds (23 nL) will be transferred via Kalypsys pin tool equipped with 1536-pin array. The plates will then be incubated for 15 min at room temperature, and 1 µL substrate (50 nM final concentration) will be added to start the reaction and kinetically read twice at 0 min and 10 min on the Viewlux reader.
Potency is the fitted concentration of half-maximal effect.

The chains behind the UniProt entries cited, without tags or fusion partners. Where a name states a change or a piece, a line headed by the entry shows the natural chain unless it says otherwise.
UniProt Q9UNA4: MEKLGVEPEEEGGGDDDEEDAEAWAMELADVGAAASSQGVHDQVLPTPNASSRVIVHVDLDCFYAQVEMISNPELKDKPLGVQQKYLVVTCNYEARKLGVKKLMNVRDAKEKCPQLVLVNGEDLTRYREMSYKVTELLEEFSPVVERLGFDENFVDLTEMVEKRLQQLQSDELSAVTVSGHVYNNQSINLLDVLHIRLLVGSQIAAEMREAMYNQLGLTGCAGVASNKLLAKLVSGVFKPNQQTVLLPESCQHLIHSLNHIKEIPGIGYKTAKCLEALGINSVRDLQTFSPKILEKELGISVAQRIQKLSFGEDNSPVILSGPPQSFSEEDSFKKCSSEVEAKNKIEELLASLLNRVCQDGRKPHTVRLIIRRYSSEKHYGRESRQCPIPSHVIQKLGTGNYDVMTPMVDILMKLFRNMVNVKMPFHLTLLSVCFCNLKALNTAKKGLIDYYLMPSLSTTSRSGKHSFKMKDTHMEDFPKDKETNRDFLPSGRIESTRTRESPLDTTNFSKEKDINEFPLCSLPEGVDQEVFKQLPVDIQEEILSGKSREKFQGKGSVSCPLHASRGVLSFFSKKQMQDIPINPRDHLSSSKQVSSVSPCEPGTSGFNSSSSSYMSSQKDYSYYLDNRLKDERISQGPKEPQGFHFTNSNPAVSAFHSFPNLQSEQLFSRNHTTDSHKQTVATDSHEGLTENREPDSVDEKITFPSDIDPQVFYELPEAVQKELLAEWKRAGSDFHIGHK

Row | SMILES | Potency
1 | O=C(Nc1ccccc1)c1ccccc1NS(=O)(=O)c1ccc(Cl)s1 | inactive
2 | CCC1CSC(Nc2ccc(C(=O)/C=C/c3cccc(C)c3)cc2)=N1 (stereo unspecified) | inconclusive: 8.91 µM [inhibitor, full curve, poor fit]
3 | Cc1cc(C)c(S(=O)(=O)N(CC(=O)NCc2cccnc2)C2CCCCC2)c(C)c1 | active: 89.1 µM
4 | COc1ccc(/C=C2/SC(=S)N(CCCC(=O)Nc3ccc(O)cc3)C2=O)cc1OC | inconclusive: 63.1 µM [inhibitor, partial curve, poor fit]
5 | COc1ccc(Cl)cc1NC(=O)Cn1nnc(C(=O)NCc2cccs2)c1N | inconclusive: 100 µM [inhibitor, single point]
6 | NC(=S)N/N=C1\c2ccccc2-c2c(C(=O)O)cccc21 | inconclusive: 22.4 µM [inhibitor, full curve]
7 | Cc1c([N+](=O)[O-])cc(N2C(=O)C=CC2=O)cc1[N+](=O)[O-] | active: 10 µM
8 | CCC1=NN2C(=N)/C(=C\c3cccn3-c3ccc(Br)cc3)C(=O)N=C2S1 | inconclusive: 25.1 µM [inhibitor, full curve, poor fit]
9 | CC1=NN2C(=N)/C(=C\c3cc(C)n(-c4ccc(C)cc4)c3C)C(=O)N=C2S1 | inactive
10 | O=C(O)CCC(=O)N1CCC(n2nnc3cc(C(F)(F)F)ccc32)CC1 | inconclusive: 100 µM [inhibitor, partial curve, poor fit]
11 | COc1ccc(-c2nc3ccccc3o2)cc1NC(=O)c1ccc(OCC(C)C)cc1 | inactive
12 | CCOC(=O)c1cc(-c2ccco2)nc2c1c(C)nn2-c1cccc(Cl)c1 | inactive
13 | O=C(Nc1ccccc1)Nc1ccc(O)c2ccccc12 | inconclusive: 15.8 µM [inhibitor, full curve, poor fit]
14 | O=S(=O)(c1ccccc1)c1nnn2c1nc(NC1CCCCCC1)c1sccc12 | inactive
15 | O=C(NNc1ccc(C2CCCCC2)cc1)C(O)(c1ccccc1)c1cccs1 (stereo unspecified) | inconclusive: 25.1 µM [inhibitor, full curve, poor fit]
16 | Cn1c(C(=O)NCCCN2CCc3ccccc3C2)cc2c(=O)n(C)c3ccccc3c21 | inconclusive: 56.2 µM [inhibitor, partial curve, poor fit]
17 | Cc1cccc(Cc2c(C)nc3nc(SCc4cccc(F)c4)nn3c2C)c1 | inactive
18 | Cc1cccc(N(C(=O)c2cnc3n(c2=O)CCS3)C2CCCCC2)c1 | inconclusive: 79.4 µM [inhibitor, partial curve, poor fit]
19 | Nc1nc(N)c2c(Oc3ccc(F)cc3)cccc2n1 | inconclusive: 100 µM [inhibitor, single point]
20 | COc1cc2c(cc1OC)[C@H](C)N(C(=O)COc1ccccc1)CC2 | inactive
21 | Cc1ccc(-c2nc(S(=O)(=O)c3ccc(C)cc3)c(N3CCCCC3)o2)cc1 | inactive

Three structures out of the list, arranged by length of the SMILES, ascending.
Row | SMILES | Potency
10 | O=C(O)CCC(=O)N1CCC(n2nnc3cc(C(F)(F)F)ccc32)CC1 | inconclusive: 100 µM [inhibitor, partial curve, poor fit]
14 | O=S(=O)(c1ccccc1)c1nnn2c1nc(NC1CCCCCC1)c1sccc12 | inactive
4 | COc1ccc(/C=C2/SC(=S)N(CCCC(=O)Nc3ccc(O)cc3)C2=O)cc1OC | inconclusive: 63.1 µM [inhibitor, partial curve, poor fit]

Remaining list, next part.

Row | SMILES | Potency
22 | O=C(Nc1ccc(Cl)cn1)C1CCN(S(=O)(=O)c2cccs2)CC1 | inconclusive: 39.8 µM [inhibitor, single point]
23 | CNC(=O)C(=O)NCCN1CCN(C(=O)c2ccc([N+](=O)[O-])cc2)CC1 | inconclusive: 89.1 µM [inhibitor, single point]
24 | COc1cc(S(=O)(=O)n2ccnc2C(C)C)ccc1Br | inactive
25 | O=C(NCc1ccccc1)c1cnc2n(c1=O)CCS2 | inconclusive: 89.1 µM [inhibitor, partial curve, poor fit]
26 | CCCN1C(=O)/C(=C/c2c(N3CCNC(=O)C3CC(=O)OCC)nc3c(C)cccn3c2=O)SC1=S (stereo unspecified) | inconclusive: 3.55 µM [inhibitor, full curve, poor fit]
27 | COc1ccc([C@@H]2[C@@H]3C(=O)N(C(C)(C)C)C(=O)[C@@H]3[C@]3(Cc4ccccc4)C(=O)N(c4ccc(Br)cc4)C(=O)N23)cc1 | inconclusive: 79.4 µM [inhibitor, single point]
28 | COc1ccc(Cn2c(C)nc3c(c2=O)c2nc4ccccc4nc2n3Cc2ccco2)cc1 | active: 3.16 µM
29 | CC(C)(C)c1cc(NC(=O)CSc2nncs2)n(-c2ccccc2)n1 | inactive
30 | CC1=C(C#N)c2nc(N)c(C#N)c(C)c2/C1=C\c1ccc(OCC(=O)O)c(Cl)c1 | inconclusive: 12.6 µM [inhibitor, full curve, poor fit]
31 | CC(=O)Nc1ccc(NC(=O)c2nc(SCc3ccccc3C)ncc2Cl)cc1 | inconclusive: 89.1 µM [inhibitor, partial curve, poor fit]
32 | COCCN1CSC(=S)N(Cc2ccco2)C1 | inconclusive: 15.8 µM [inhibitor, partial curve, poor fit]
33 | c1ccc(COc2ccccc2CNCc2cccnc2)cc1 | inconclusive: 25.1 µM [inhibitor, single point]
34 | Cc1ccc(Cl)cc1-n1ncc2c(NCCC3=CCCCC3)ncnc21 | inconclusive: 100 µM [inhibitor, partial curve, poor fit]
35 | COc1ccc(-c2cc3c(=O)n(CC(=O)Nc4cc(C)ccc4C)ccn3n2)cc1 | inactive
36 | Cc1ccc(NC(=O)CCc2nnc3ccc(NCc4ccco4)nn23)cc1F | inconclusive: 35.5 µM [inhibitor, partial curve, poor fit]
37 | Cc1cc2nc(-c3cccc(NC(=O)c4ccc(Br)o4)c3)oc2cc1C | inactive
38 | O=C(NCc1ccco1)c1nc2nc(-c3cccs3)cc(C(F)(F)F)n2n1 | inconclusive: 20 µM [inhibitor, full curve, poor fit]
39 | Cc1cccc(NC(=O)c2cc3c(=O)n4ccccc4nc3n(CC(C)C)c2=N)c1 | inconclusive: 39.8 µM [inhibitor, partial curve, poor fit]
40 | CNC(=O)COc1coc(CN2CCN(c3ccc(OC)cc3)CC2)cc1=O | inconclusive: 89.1 µM [inhibitor, partial curve, poor fit]
41 | N#CC1=C(N)C(C#N)(C#N)C(c2ccncc2)C2CN(C(=O)OCc3ccccc3)CC=C12 (stereo unspecified) | inconclusive: 12.6 µM [inhibitor, partial curve, poor fit]

Source: PubChem BioAssay AID588590 (National Center for Advancing Translational Sciences (NCATS), 2011)
